Laboratory results reported in article PMC5253655.
Numbering of substitutions follows the chain as printed. These are yes or no findings as the source states them, for the method shown. In cells and extracts the contact can be indirect. Some results given as binding are weak or reduced against the parent protein; the word gives no strength. Sequences can lack the tags named with a protein.

The chains behind the UniProt entries cited, without tags or fusion partners.
UniProt P23330: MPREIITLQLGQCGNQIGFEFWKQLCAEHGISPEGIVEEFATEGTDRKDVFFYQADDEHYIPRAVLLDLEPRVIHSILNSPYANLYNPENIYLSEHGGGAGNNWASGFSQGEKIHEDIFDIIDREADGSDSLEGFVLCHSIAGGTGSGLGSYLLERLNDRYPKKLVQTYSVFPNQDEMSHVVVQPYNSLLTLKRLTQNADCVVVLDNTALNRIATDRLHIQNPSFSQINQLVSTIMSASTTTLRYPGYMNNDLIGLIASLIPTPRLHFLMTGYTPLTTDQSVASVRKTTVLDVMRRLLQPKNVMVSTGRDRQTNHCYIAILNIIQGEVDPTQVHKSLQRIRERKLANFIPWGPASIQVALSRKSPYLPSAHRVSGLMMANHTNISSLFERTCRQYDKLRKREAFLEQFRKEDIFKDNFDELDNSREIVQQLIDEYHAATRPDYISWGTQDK

How the values were obtained:
Assay in all cases: co-IP; Flag immunoprecipitation (anti-Flag antibody or normal mouse serum, Protein G Sepharose) from metaphase-arrested Xenopus CSF egg extracts expressing 2xFlag-huWdr8 constructs from added mRNA; 23 °C; washes TBS-T and TBS; Western blot
[1] = molecular target: T1, 2xFlag-huWdr8 wild-type (human) (UniProt Q9P2S5)
T1 sequence: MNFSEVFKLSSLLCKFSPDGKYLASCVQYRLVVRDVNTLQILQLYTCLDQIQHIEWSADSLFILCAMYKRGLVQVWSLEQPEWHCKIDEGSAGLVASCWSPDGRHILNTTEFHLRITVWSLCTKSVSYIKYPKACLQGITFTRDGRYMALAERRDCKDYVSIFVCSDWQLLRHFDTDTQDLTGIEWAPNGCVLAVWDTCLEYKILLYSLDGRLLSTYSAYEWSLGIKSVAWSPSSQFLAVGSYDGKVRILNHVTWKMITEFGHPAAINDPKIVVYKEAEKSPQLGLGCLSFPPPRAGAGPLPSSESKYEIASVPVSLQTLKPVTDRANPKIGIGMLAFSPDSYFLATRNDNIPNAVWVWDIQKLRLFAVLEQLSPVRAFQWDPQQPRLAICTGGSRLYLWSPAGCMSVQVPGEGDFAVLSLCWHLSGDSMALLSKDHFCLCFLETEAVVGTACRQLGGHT

[2] = molecular target: T2, 2xFlag-359/360AA (human) (UniProt Q9P2S5)
T2 sequence: T1 sequence with W359A, D360A

[3] = molecular target: T3, 2xFlag-196/197AA (human) (UniProt Q9P2S5)
T3 sequence: T1 sequence with W196A, D197A

Measured: binding

γ-tubulin (from UniProt P23330 1-451)
binds: all assays above
